# Results from PubChem BioAssay AID445 (National Center for Advancing Translational Sciences (NCATS), 2006).
# “And” between values parts separate entries of the source, which are not always exact repeats. Equal values may be shown once. Some of the results follow. Shown are side measurements of this screen, not its main read-out; they come without a call. Compounds called inactive in the main read-out are mostly missing here. The note in brackets gives the kind of curve behind each potency; many fits are weak.
# Test: IkB Signaling
# Conditions: ABC-DLBCL IkBa-CBG/CBR dual luciferase ratio (green luciferase fused to IkBa over red control in OCI-Ly3 lymphoma cells), 4 h
# Summary of the method: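 Curves were fitted separately to fusion (green), unfused (red) and ratio luminescence, then classed by r2, magnitude and activity. Cells: OCI-Ly3, 4 h compound plus doxycycline at 37C; 10 uM MG-132 defined full response.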
# [1] = measured here: control luc red channel unless noted
smiles,measurement,setting,value
Cc1ccc(C)c(N2CCN(C(=O)c3cc4sccc4n3C)CC2)c1,AC50,[1],"15.8 µM [falling, partial curve]"
CCN(CC)S(=O)(=O)c1ccc2c(c1)N(CC(=O)NCc1ccc(F)cc1)C(=O)CO2,AC50,[1],"25.1 µM [falling, partial curve, poor fit]"
Cc1cc(N2CCN(c3cccc(C(F)(F)F)c3)CC2)n2nc(-c3ccccc3C)nc2n1,AC50,[1],"20 µM [falling, single point]"
Cc1ccc2oc(=O)c3cnn(CC(=O)N4CCN(c5cccc(C(F)(F)F)c5)CC4)c3c2c1,AC50,[1],"0.126 µM [falling, full curve, poor fit]"
O=S(=O)(c1cccc(C(F)(F)F)c1)N1CCC(Oc2ccc(-n3cnnn3)cc2)CC1,AC50,[1],"1.26 µM [falling, full curve]"
COc1ccc(NC(=O)C2=C(C)Nc3c(C(=O)Nc4ccc(C)cc4)cnn3C2c2cc(OC)ccc2OC)cc1 (configuration not stated),AC50,[1],"25.1 µM [falling, single point]"
Cc1cc(C)c2oc(-c3cc(NC(=O)Cc4ccccc4)ccc3Cl)nc2c1,AC50,[1],"2.51 µM [falling, partial curve]"
COc1cccc(NC(=O)Cn2c(=O)n(Cc3ccccc3)c(=O)c3c2c2cc(C)ccc2n3C)c1,AC50,[1],"1.58 µM [falling, single point]"
O=C(Nc1ccc([N+](=O)[O-])cc1Cl)c1cc(Cl)ccc1O,AC50,measured here: IkB-luc green channel,"2.51 µM [falling, full curve]"
same,AC50,measured here: control luc red channel,"3.16 nM [falling, full curve] and 0.251 nM [falling, full curve]"
N#Cc1c(N)n[nH]c1-c1cc2c([nH]1)CCCC2,AC50,[1],"39.8 µM [falling, single point]"
COc1cc(OC)c(OC)cc1CN1CCc2nc(N3CCN(c4ccccc4F)CC3)ncc2C1,AC50,[1],"25.1 µM [falling, partial curve]"
Cc1ccc2c(C)c(C(=O)N3CCC(c4nc5ccccc5s4)CC3)oc2c1C,AC50,[1],"39.8 µM [falling, single point]"
COc1ccc(C2C=C(c3ccccc3)Nc3nc(NS(=O)(=O)c4ccc(C)cc4)nn32)cc1 (configuration not stated),AC50,[1],"0.631 µM [rising, full curve, poor fit]"
Cc1nc(N2CCN(C(=O)c3ccco3)CC2)c2oc3ccccc3c2n1,AC50,[1],"12.6 µM [falling, partial curve]"
Cc1c(C(=O)OC2CCCCC2)[nH]c2c1C(=O)CC(c1ccccc1)C2 (configuration not stated),AC50,[1],"31.6 µM [falling, partial curve, poor fit]"
Cc1ccc(OCC(=O)N(Cc2ccc(Cl)cc2)CC2CCCO2)cc1C (configuration not stated),AC50,[1],"39.8 µM [falling, single point]"
COc1ccc(C(=O)N2CC(=O)Nc3ccc(C)cc3C2c2ccc(F)cc2)c(OC)c1 (configuration not stated),AC50,[1],"31.6 µM [falling, single point]"
COc1cccc(C(=O)Cn2c(=N)n(C)c3ccccc32)c1,AC50,[1],"12.6 µM [falling, partial curve]"
CCC(=O)N1CCc2cc(Br)cc(S(=O)(=O)CCC(=O)NCCc3ccc(C)cc3)c21,AC50,[1],"3.16 µM [rising, single point]"
COc1ccc(N(CC(=O)Nc2ccc(F)c(Cl)c2)S(=O)(=O)c2c(C)noc2C)cc1,AC50,[1],"12.6 µM [falling, partial curve]"
CCOc1ccc(C(=O)N2CCC(c3nc(-c4ccc(S(=O)(=O)N5CCCC5)cc4)no3)CC2)cc1,AC50,[1],"15.8 µM [falling, partial curve]"
Cc1ccc(C(C)C)c(OCC(=O)Nc2cccc(-c3nc4ncccc4o3)c2)c1,AC50,[1],"6.31 µM [falling, partial curve]"
CCOc1ccc(NC(=O)N(Cc2ccc(CC)cc2)Cc2cn[nH]c2-c2ccc(OC)cc2)cc1,AC50,[1],"25.1 µM [falling, single point]"
O=c1[nH]ncc2ccccc12,AC50,[1],"794 nM [rising, full curve] [measured here: IkB-luc green channel]"
CC(=O)Nc1ccc(NC(=O)CSc2cn(CC(=O)N(C(C)C)C(C)C)c3ccccc23)cc1,AC50,[1],"31.6 µM [falling, single point]"
Cc1ccc(-c2noc(CN(C3CCCCC3)S(=O)(=O)c3ccc(F)cc3)n2)cc1,AC50,[1],"12.6 µM [falling, partial curve]"
COc1ccc(OCCn2cc(C(=O)c3ccco3)c3ccccc32)cc1,AC50,[1],"0.251 µM [falling, full curve]"
CC1(C)CC(=O)C=C(Nc2ccccc2O)C1,AC50,[1],"3.16 µM [falling, partial curve]"
CCC(C)Sc1nc2c([nH]c3ccccc32)c(=O)n1C (configuration not stated),AC50,[1],"0.631 µM [rising, full curve]"
COc1ccc(-c2nc(C)c(CCNC(=O)c3ccco3)s2)cc1,AC50,[1],"10 µM [rising, partial curve, poor fit]"
Cc1ccccc1COC(=O)c1ccc(-c2nnn(Cc3ccccc3F)n2)cc1,AC50,[1],"3.98 µM [rising, full curve, poor fit]"
CCN1CCN(C(=O)c2ccc3c(c2)N(Cc2c(F)cccc2Cl)C(=O)c2ccccc2S3)CC1,AC50,[1],"12.6 µM [falling, partial curve]"
Cc1oc2ccc(O)c(CN3CCN(C)CC3)c2c1C(=O)Nc1ccc(C(C)C)cc1,AC50,[1],"12.6 µM [falling, partial curve]"
Cc1cc(C)n2nc(NCc3ccccc3Cl)nc2n1,AC50,[1],"31.6 µM [falling, partial curve]"
CCN(CC)c1ccc(C(=O)Nc2ccc3nc(N(CC)CC)cc(C)c3c2)cc1,AC50,[1],"15.8 µM [falling, partial curve]"
Cc1ccc2[nH]c(CSc3nnc(NC(=O)COc4ccccc4Cl)s3)cc(=O)c2c1,AC50,[1],"0.398 µM [falling, full curve, poor fit]"
CCc1ccc(NC(=O)C2CCCN(S(=O)(=O)c3cccc4cccnc34)C2)cc1 (configuration not stated),AC50,[1],"31.6 µM [falling, single point]"
O=C(/C=C/Nc1ccc(F)c(Cl)c1)c1ccco1,AC50,[1],"25.1 µM [falling, partial curve]"
Cc1ccc(CNC(=O)c2sc3ncnc(N(C)C4CCCCC4)c3c2C)cc1,AC50,[1],"39.8 µM [falling, single point]"
O=S(=O)(NCC(c1ccco1)N1CCOCC1)c1ccc(Cl)cc1 (configuration not stated),AC50,[1],"3.98 µM [rising, single point]"
Cc1ccccc1NC(=O)C1CCN(S(=O)(=O)c2ccccc2)CC1,AC50,[1],"12.6 µM [falling, partial curve, poor fit]"
CCc1nnc(NC(=O)CSc2nc3c([nH]c4ccccc43)c(=O)n2-c2ccc(C)cc2)s1,AC50,[1],"0.501 µM [rising, full curve, poor fit]"
COc1ccc2noc3c2c1C(=O)c1ccccc1-3,AC50,[1],"6.31 µM [falling, full curve]"
Cc1ccc(C)c(-c2ccc(=O)n(Cc3ccc(F)cc3Cl)n2)c1,AC50,[1],"3.16 µM [rising, partial curve]"
CCOC(=O)C1CCCN(C(=O)Cn2ncc3c4ccccc4n(Cc4ccc(F)cc4)c3c2=O)C1 (configuration not stated),AC50,[1],"12.6 µM [falling, partial curve]"
O=C(COc1ccccc1)Nc1sc2c(c1C(=O)Nc1ccccc1)CCCCC2,AC50,[1],"2.51 µM [falling, full curve]"
Cc1ccc(-c2nnn(CC(=O)N(CC(=O)NCC3CCCO3)c3ccc(F)c(Cl)c3)n2)o1 (configuration not stated),AC50,[1],"20 µM [falling, partial curve]"
CC(C)(C)c1ccc(C(=O)Nc2ccc(OCc3cc(=O)n4ccsc4n3)cc2)cc1,AC50,[1],"6.31 µM [falling, full curve]"
Cc1cc(N2CCN(c3ccccc3)CC2)n2cnnc2n1,AC50,[1],"5.01 µM [falling, full curve]"
CCCN1CCN(CCCNC(=O)c2ccc3c(c2)sc2nc(-c4ccc(OCC)cc4)cn23)CC1,AC50,[1],"5.01 µM [falling, full curve, poor fit]"
CCOc1ccc(-c2cn3c(n2)sc2cc(C(=O)N4CCCC(C)C4)ccc23)cc1 (configuration not stated),AC50,[1],"10 µM [falling, partial curve]"
Cc1cc(C)cc(OCC(=O)N(Cc2ccc(Cl)cc2)C2CCS(=O)(=O)C2)c1 (configuration not stated),AC50,[1],"39.8 µM [falling, single point]"
COc1cc(C2=NOC(C(=O)NCc3ccc(F)cc3)C2)cc(OC)c1OC (configuration not stated),AC50,[1],"10 µM [falling, partial curve]"
Cc1ccc2c(c1)-c1c(cnn1CC(=O)N1CCN(c3cc(C)ccc3C)CC1)CO2,AC50,[1],"10 µM [falling, partial curve]"
CCOC(=O)N1CCC(Nc2ncnc3c2cnn3-c2ccccc2)CC1,AC50,[1],"12.6 µM [falling, partial curve]"
CC(C)N1CCc2c(sc(NC(=O)c3ccc(S(=O)(=O)N(C)C4CCCCC4)cc3)c2C(N)=O)C1,AC50,[1],"20 µM [falling, partial curve, poor fit]"
Cn1nc(-c2ccccc2F)c2cc(C(=O)N3CCN(C(=O)c4ccco4)CC3)sc21,AC50,[1],"12.6 µM [falling, partial curve]"
COCCc1nn2c(=O)cc(COC(=O)c3ccco3)nc2s1,AC50,[1],"39.8 µM [falling, single point]"
COc1cccc(-c2nn(C)c3sc(C(=O)NCc4ccc(C)o4)cc23)c1,AC50,[1],"3.16 µM [falling, full curve]"
CSc1cccc(NC(=O)CN(c2cc(C)ccc2C)S(C)(=O)=O)c1,AC50,[1],"20 µM [falling, partial curve]"
Cc1cccc(-c2nc(CS(=O)CC(=O)NCc3ccc(Cl)cc3)c(C)o2)c1 (configuration not stated),AC50,[1],"15.8 µM [falling, partial curve]"

# 4 entries picked at random from the list so far:
smiles,measurement,setting,value
CCC(C)Sc1nc2c([nH]c3ccccc32)c(=O)n1C (configuration not stated),AC50,[1],"0.631 µM [rising, full curve]"
CCC(=O)N1CCc2cc(Br)cc(S(=O)(=O)CCC(=O)NCCc3ccc(C)cc3)c21,AC50,[1],"3.16 µM [rising, single point]"
Cn1nc(-c2ccccc2F)c2cc(C(=O)N3CCN(C(=O)c4ccco4)CC3)sc21,AC50,[1],"12.6 µM [falling, partial curve]"
Cc1ccc(C)c(N2CCN(C(=O)c3cc4sccc4n3C)CC2)c1,AC50,[1],"15.8 µM [falling, partial curve]"

# Part of the list above, tab-delimited.
smiles	measurement	setting	value
Cc1ccc(-c2noc(CN(C3CCCCC3)S(=O)(=O)c3ccc(F)cc3)n2)cc1	AC50	[1]	12.6 µM [falling, partial curve]
CCOC(=O)N1CCC(Nc2ncnc3c2cnn3-c2ccccc2)CC1	AC50	[1]	12.6 µM [falling, partial curve]
